Data: publication PMC10878159
Results are given in words; binding and its absence hold for the method and conditions named. In cells and extracts the contact can be indirect. Some binding calls cover weakened binding; strength is not graded here.

Sequences of proteins named here, by UniProt entry; tags and fusion partners are left off.
UniProt P14859: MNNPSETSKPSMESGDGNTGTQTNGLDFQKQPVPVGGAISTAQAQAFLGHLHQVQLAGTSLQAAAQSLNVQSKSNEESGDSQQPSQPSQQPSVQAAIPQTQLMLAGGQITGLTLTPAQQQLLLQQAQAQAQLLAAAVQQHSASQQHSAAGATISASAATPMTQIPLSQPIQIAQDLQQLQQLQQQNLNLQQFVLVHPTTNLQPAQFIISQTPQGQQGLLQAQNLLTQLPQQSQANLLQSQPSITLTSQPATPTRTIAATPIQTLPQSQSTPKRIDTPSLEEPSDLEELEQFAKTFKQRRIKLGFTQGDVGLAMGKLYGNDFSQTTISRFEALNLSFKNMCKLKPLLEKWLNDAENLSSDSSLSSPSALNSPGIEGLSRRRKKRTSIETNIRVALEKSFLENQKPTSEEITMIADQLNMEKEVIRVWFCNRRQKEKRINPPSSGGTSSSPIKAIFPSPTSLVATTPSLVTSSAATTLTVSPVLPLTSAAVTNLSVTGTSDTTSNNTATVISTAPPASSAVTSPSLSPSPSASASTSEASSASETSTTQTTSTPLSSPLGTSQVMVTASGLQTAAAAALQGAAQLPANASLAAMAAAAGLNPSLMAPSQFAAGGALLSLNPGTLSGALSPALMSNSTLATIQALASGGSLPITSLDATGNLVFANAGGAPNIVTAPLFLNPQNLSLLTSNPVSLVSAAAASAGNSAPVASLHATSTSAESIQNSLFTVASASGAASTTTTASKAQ
UniProt P19474: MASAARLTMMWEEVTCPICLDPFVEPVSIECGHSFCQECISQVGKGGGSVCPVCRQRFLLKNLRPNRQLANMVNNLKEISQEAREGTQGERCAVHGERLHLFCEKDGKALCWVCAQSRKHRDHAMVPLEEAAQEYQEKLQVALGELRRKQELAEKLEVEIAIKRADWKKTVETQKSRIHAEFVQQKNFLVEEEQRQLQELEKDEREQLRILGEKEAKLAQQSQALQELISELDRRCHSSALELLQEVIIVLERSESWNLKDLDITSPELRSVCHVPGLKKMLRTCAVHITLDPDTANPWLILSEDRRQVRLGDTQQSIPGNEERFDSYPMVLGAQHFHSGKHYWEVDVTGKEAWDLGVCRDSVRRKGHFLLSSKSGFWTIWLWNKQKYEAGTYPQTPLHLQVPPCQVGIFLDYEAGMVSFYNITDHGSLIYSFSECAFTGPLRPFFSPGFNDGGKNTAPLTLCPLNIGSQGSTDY

Biological target: POU2F1 (human (in human CRC cells)) (UniProt P14859)
Experiment: co-IP; in CRC cells; bait, antibodies and cell lines not told in the text shown

- binding: binds
Substance: TRIM21 (from UniProt P19474 1-475)
